Drawing on paper PMC8649869, this text covers binding for two substances.

By UniProt entry, the sequences of proteins in these tests, tags left out.
UniProt P18848: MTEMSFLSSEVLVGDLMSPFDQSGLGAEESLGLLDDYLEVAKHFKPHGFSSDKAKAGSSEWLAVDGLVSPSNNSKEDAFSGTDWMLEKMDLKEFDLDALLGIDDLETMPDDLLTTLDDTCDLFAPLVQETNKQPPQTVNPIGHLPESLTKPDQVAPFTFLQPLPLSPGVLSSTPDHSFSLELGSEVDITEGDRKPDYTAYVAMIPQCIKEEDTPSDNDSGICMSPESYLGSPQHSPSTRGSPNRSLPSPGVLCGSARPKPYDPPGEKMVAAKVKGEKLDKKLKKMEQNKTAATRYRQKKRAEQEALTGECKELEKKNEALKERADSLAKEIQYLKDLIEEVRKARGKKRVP
UniProt P46937: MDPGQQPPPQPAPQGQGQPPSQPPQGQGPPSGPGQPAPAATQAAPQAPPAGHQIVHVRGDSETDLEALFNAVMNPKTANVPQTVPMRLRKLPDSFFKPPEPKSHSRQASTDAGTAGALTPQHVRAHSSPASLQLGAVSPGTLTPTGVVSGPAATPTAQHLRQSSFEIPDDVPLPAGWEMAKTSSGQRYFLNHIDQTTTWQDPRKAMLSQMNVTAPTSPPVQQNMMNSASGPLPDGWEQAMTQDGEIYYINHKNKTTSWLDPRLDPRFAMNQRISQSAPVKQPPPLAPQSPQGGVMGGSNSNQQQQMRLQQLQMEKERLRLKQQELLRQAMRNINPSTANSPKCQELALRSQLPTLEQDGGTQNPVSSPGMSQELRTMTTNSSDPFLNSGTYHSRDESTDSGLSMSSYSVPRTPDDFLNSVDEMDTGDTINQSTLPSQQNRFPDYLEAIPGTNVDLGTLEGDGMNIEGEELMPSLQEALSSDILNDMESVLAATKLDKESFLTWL
UniProt Q9GZV5: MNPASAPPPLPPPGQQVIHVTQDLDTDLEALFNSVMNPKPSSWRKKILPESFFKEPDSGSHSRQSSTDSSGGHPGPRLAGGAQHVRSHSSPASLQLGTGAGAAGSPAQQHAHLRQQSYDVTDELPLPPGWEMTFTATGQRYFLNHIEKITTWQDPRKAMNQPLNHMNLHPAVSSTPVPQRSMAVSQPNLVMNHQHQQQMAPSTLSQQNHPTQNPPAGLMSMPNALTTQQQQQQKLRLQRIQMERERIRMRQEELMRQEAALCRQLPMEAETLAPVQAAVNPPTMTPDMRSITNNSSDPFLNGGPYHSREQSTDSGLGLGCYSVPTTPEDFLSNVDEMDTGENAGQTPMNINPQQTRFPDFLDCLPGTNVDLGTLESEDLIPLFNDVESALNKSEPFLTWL

The experiment deals with ATF4 (human (endogenous in HLE)) (UniProt P18848). The experiment can be described thus: co-IP; HLE cells cultured with 6 μM Sorafenib for 18 h; lysed with CST lysis buffer with protease inhibitors at 4°C; ATF4 immunoprecipitated with specific antibody and protein A/G-Sepharose overnight at 4°C, five washes; YAP, TAZ and ATF4 detected by immunoblotting; unrelated IgG as control. (In general: Immunoblotting shows a protein as a band on a membrane.)

No constants are given. Whether binding was seen depends on the method and setting. In cells and extracts the contact can be indirect. Some entries that bind do so weakly or less than the wild type.

In the case of YAP (from UniProt P46937 1-504), the binding entry is listed as “binds”.

In the case of TAZ (from UniProt Q9GZV5 1-400), the binding result is “binds”.
